No constants are given. Whether binding was seen depends on the method and setting. In cells and extracts the contact can be indirect. Some binding calls cover weakened binding; strength is not graded here. Where a sequence is shown, tags or fusion partners need not be part of it.
What was measured:
[1] = target: BCL-xL (mouse (endogenous in MLE12)) (UniProt Q64373); test: co-IP; immunoprecipitation with anti-BCL-xL antibody from lysate of TSSK4^+ MLE12 cells stimulated without or with TNF-α (20 ng/ml), immunoblotting
[2] = target: BCL-xL (mouse (endogenous in MLE12)) (UniProt Q64373); test: co-IP; immunoprecipitation with anti-BCL-xL antibody from lysate of TSSK4-deficient MLE12 cells, TNF-α stimulation, immunoblotting

Sequences of proteins named here, by UniProt entry; tags and fusion partners are left off.
UniProt Q64373: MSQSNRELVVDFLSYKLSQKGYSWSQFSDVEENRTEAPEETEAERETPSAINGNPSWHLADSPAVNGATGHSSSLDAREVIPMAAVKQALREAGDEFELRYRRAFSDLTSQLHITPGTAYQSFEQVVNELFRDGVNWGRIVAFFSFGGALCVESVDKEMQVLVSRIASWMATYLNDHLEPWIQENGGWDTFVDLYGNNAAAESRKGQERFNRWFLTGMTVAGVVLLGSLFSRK

B1: BAD (BCL2 antagonist of cell death) (protein, UniProt Q61337 1-204)
chain: MGTPKQPSLAPAHALGLRKSDPGIRSLGSDAGGRRWRPAAQSMFQIPEFEPSEQEDASATDRGLGPSLTEDQPGPYLAPGLLGSNIHQQGRAATNSHHGGAGAMETRSRHSSYPAGTEEDEGMEEELSPFRGRSRSAPPNLWAAQRYGRELRRMSDEFEGSFKGLPRPKSAGTATQMRQSAGWTRIIQSWWDRNLGKGGSTPSQ
binding [1]: binds | binding [2]: no binding (condition: in TSSK4-deficient cells)
